Measured values from the supplement of paper PMC12823440, “Inhibitors supercharge kinase turnover through native proteolytic circuits” (Nature, 2025).
Structures can show the parent of a compound that is named as a salt. The list shows a part of the results. Hit calls seldom repeat between salt and free forms of one compound.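 Kinases were expressed as nanoluciferase fusions in K562 cells and luminescence was read every 4 h between 2 and 18 h as percent of control, DMSO set to 100% and a positive control to 0%. A time point counts as decreased when the signal drops significantly (2 sigma). The hit call is the authors' own, does not follow from the count of time points alone, and its rule is not shown.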

Target: EGFR (UniProt P00533)
Assay: kinase-Nluc reporter destabilization hit call (1 = scored as downregulated) (binary); higher = compound decreases kinase abundance
Details: 10 µM; K562; 2-18 h

kinase-Nluc reporter destabilization hit call, inactive:
N#CCNC(=O)c1ccc(-c2ccnc(Nc3ccc(N4CCOCC4)cc3)n2)cc1 [Momelotinib] 0, CC(=O)Nc1cccc(-n2c(=O)n(C3CC3)c(=O)c3c(Nc4ccc(I)cc4F)n(C)c(=O)c(C)c32)c1 [Trametinib] 0, O=C(Nc1cnn2ccc(N3CCC[C@@H]3c3cc(F)ccc3F)nc12)N1CC[C@H](O)C1 [Larotrectinib sulfate] 0, C#Cc1cccc(Nc2ncnc3cc4c(cc23)OCCOCCOCCO4)c1 [Icotinib (Hydrochloride)] 0, COc1cc2nccc(Oc3ccc(NC(=O)C4(C(=O)Nc5ccc(F)cc5)CC4)cc3)c2cc1OC [Cabozantinib (S-malate)] 0, N#CC[C@H](C1CCCC1)n1cc(-c2ncnc3[nH]ccc23)cn1 [Ruxolitinib] 0, CS(=O)(=O)N1CCN(Cc2cc3nc(-c4cccc5[nH]ncc45)nc(N4CCOCC4)c3s2)CC1 [Pictilisib (dimethanesulfonate)] 0, N#CCNC(=O)c1ccc(-c2ccnc(Nc3ccc(N4CCOCC4)cc3)n2)cc1 [Momelotinib sulfate] 0, C[C@H](CCC(=O)NCCS(=O)(=O)O)[C@H]1CC[C@H]2[C@@H]3[C@@H](O)C[C@@H]4C[C@H](O)CC[C@]4(C)[C@H]3CC[C@]12C [Tauroursodeoxycholate (sodium)] 0, CN(C)C(=N)NC(=N)N [Metformin (hydrochloride)] 0, C/C=C1\C(=O)C[C@H]2[C@@H]3CCC4=CC(=O)CC[C@]4(C)[C@H]3CC[C@]12C [Guggulsterone] 0, Cn1cc(-c2cnc3ccc4ccc(CS(=O)(=O)NCc5ccccn5)cc4c(=O)c3c2)cn1 [MK-8033 (hydrochloride)] 0, C/C=C1\C(=O)C[C@H]2[C@@H]3CCC4=CC(=O)CC[C@]4(C)[C@H]3CC[C@]12C [(Z)-Guggulsterone] 0, COc1cc2c(-c3cnn4cc(N5CCC(N6CCN(C)CC6)CC5)cnc34)ccnc2cc1F 0

Target: EGFR_G719S (UniProt P00533)
Assay: as above
Details: 2.5 µM; K562; 2-18 h

kinase-Nluc reporter destabilization hit call, inactive:
C[C@H](Nc1cc(-c2cnn(C)c2)cc(Nc2cnccn2)n1)c1ccc(F)cc1 [Ilginatinib hydrochloride] 0, Cc1cccc(/C=N/Nc2cc(N3CCOCC3)nc(OCCc3ccccn3)n2)c1 [Apilimod] 0, Cc1ccc(NC(=O)c2ccc(CN3CCN(C)CC3)cc2)cc1Nc1nc(-c2cccnc2)cs1 [Masitinib (mesylate)] 0, COc1cc2nccc(Oc3ccc(NC(=O)C4(C(=O)Nc5ccc(F)cc5)CC4)cc3)c2cc1OC [Cabozantinib] 0, Cc1cccc(-c2[nH]c(CNc3ccccc3F)nc2-c2ccc3ncnn3c2)n1 [Vactosertib (Hydrochloride)] 0, CC(C)Oc1ccc(-c2nn([C@@H](C)c3oc4ccc(F)cc4c(=O)c3-c3cccc(F)c3)c3ncnc(N)c23)cc1F [Umbralisib (hydrochloride)] 0, CN(C)C(=O)c1cc2cnc(Nc3ccc(N4CCNCC4)cn3)nc2n1C1CCCC1 [Ribociclib succinate hydrate] 0, O=C(Nc1ccncc1)Nc1ccc(-c2nc(N3CCOCC3)nc(N3C4CCC3COC4)n2)cc1 [PKI-179 (hydrochloride)] 0, C=CC(=O)Nc1cc(Nc2nccc(-c3cn(C4CC4)c4ccccc34)n2)c(OC)cc1N(C)CCN(C)C [Almonertinib (hydrochloride)] 0, C=CC(=O)Nc1cc2c(Nc3ccc(F)c(Cl)c3)ncnc2cc1C#CC(C)(C)N1CCN(C)CC1 [AV-412 (free base)] 0, CNC(=O)c1cc(Oc2ccc(NC(=O)Nc3ccc(Cl)c(C(F)(F)F)c3)c(F)c2)ccn1 [Regorafenib] 0

Same assay, conditions: 10 µM; K562; 2-18 h

kinase-Nluc reporter destabilization hit call, inactive:
COc1cc2c(-c3cnn4cc(N5CCC(N6CCN(C)CC6)CC5)cnc34)ccnc2cc1F [ALK2-IN-4 (succinate)] 0, C#Cc1cccc(Nc2ncnc3cc(OCCOC)c(OCCO)cc23)c1 [Desmethyl Erlotinib] 0, N=C(N)NC(=O)c1nc(Cl)c(N)nc1N [Amiloride (hydrochloride)] 0, N#CC[C@H](C1CCCC1)n1cc(-c2ncnc3[nH]ccc23)cn1 [Ruxolitinib (phosphate)] 0, CC(=O)c1c(C)c2cnc(Nc3ccc(N4CCNCC4)cn3)nc2n(C2CCCC2)c1=O [Palbociclib (monohydrochloride)] 0, O=C(O)c1ccc2c(c1)nc(Nc1cccc(Cl)c1)c1ccncc12 [Silmitasertib (sodium salt)] 0, COc1ccnc(C[S+]([O-])c2nc3cc(-n4cccc4)ccc3[nH]2)c1C (stereo not given) [Ilaprazole (sodium)] 0, CC(C)NC[C@@H](C(=O)N1CCN(c2ncnc3c2[C@H](C)C[C@H]3O)CC1)c1ccc(Cl)cc1 [Ipatasertib (dihydrochloride)] 0, CC(=O)c1c(C)c2cnc(Nc3ccc(N4CCNCC4)cn3)nc2n(C2CCCC2)c1=O [Palbociclib (isethionate)] 0, O=C(c1ccc(F)c(F)c1Nc1ccc(I)cc1F)N1CC(O)([C@@H]2CCCCN2)C1 [Cobimetinib (hemifumarate)] 0, COC(=O)[C@H](CC(C)C)NC(=O)c1ccc(NC[C@@H](N)CS)cc1-c1cccc2ccccc12 0, N#CCNC(=O)c1ccc(-c2ccnc(Nc3ccc(N4CCOCC4)cc3)n2)cc1 [Momelotinib] 0, CC(=O)Nc1cccc(-n2c(=O)n(C3CC3)c(=O)c3c(Nc4ccc(I)cc4F)n(C)c(=O)c(C)c32)c1 [Trametinib] 0, O=C(Nc1cnn2ccc(N3CCC[C@@H]3c3cc(F)ccc3F)nc12)N1CC[C@H](O)C1 [Larotrectinib sulfate] 0, C#Cc1cccc(Nc2ncnc3cc4c(cc23)OCCOCCOCCO4)c1 [Icotinib (Hydrochloride)] 0, COc1cc2nccc(Oc3ccc(NC(=O)C4(C(=O)Nc5ccc(F)cc5)CC4)cc3)c2cc1OC [Cabozantinib (S-malate)] 0, N#CC[C@H](C1CCCC1)n1cc(-c2ncnc3[nH]ccc23)cn1 [Ruxolitinib] 0, CS(=O)(=O)N1CCN(Cc2cc3nc(-c4cccc5[nH]ncc45)nc(N4CCOCC4)c3s2)CC1 [Pictilisib (dimethanesulfonate)] 0, N#CCNC(=O)c1ccc(-c2ccnc(Nc3ccc(N4CCOCC4)cc3)n2)cc1 [Momelotinib sulfate] 0, C[C@H](CCC(=O)NCCS(=O)(=O)O)[C@H]1CC[C@H]2[C@@H]3[C@@H](O)C[C@@H]4C[C@H](O)CC[C@]4(C)[C@H]3CC[C@]12C [Tauroursodeoxycholate (sodium)] 0, CN(C)C(=N)NC(=N)N [Metformin (hydrochloride)] 0, C/C=C1\C(=O)C[C@H]2[C@@H]3CCC4=CC(=O)CC[C@]4(C)[C@H]3CC[C@]12C [Guggulsterone] 0, Cn1cc(-c2cnc3ccc4ccc(CS(=O)(=O)NCc5ccccn5)cc4c(=O)c3c2)cn1 [MK-8033 (hydrochloride)] 0, C/C=C1\C(=O)C[C@H]2[C@@H]3CCC4=CC(=O)CC[C@]4(C)[C@H]3CC[C@]12C [(Z)-Guggulsterone] 0, COc1cc2c(-c3cnn4cc(N5CCC(N6CCN(C)CC6)CC5)cnc34)ccnc2cc1F 0
